We go through three molecules from patent US20080045469A1.

These are yes or no findings as the source states them, for the method shown. Some entries that bind do so weakly or less than the wild type.

In assay [1] the target is T1, mouse VEGF (endogenous, produced by LLC cells) (mouse) (UniProt Q00731).
T1 sequence (looked up): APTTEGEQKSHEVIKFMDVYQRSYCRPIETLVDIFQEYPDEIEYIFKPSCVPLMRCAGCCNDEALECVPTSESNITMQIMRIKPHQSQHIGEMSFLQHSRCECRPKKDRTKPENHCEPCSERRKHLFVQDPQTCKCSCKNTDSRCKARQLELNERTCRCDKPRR
In words: discussion of the ELISA results in transduced LLC cells.

Assay [2] has as its target T1, mouse VEGF (endogenous, produced by LLC cells) (mouse). Briefly: sandwich ELISA of cell lysates and conditioned media of hPLGF-1-KDEL-LLC cells. On the technique in general: An ELISA detects its analyte on a solid surface through an enzyme-linked reagent.
Assay [3] has the same target. Briefly: inferred from ELISA, chemotaxis and cell shape assays of hPLGF-1-LLC conditioned medium.
The target is the same in assay [4]. Briefly: sandwich ELISA, anti-mVEGF capture and anti-mPLGF-1 detection.

B1: human PLGF-1 with C-terminal KDEL ER-retention signal (ligand)
chain: LPAVPPQQWALSAGNGSSEVEVVPFQEVWGRSYCRALERLVDVVSEYPSEVEHMFSPSCVSLLRCTGCCGDENLHCVPVETANVTMQLLKIRSGDRPSYVELTFSQHVRCECRPLREKMKPERCGDAVPRRKDEL
For the molecule B1, the binding result in assay [1] and in assay [2] was “binds” in each case.

B2: human PLGF-1 (PLGF-1 129) expressed in transduced LLC cells (ligand)
chain: LPAVPPQQWALSAGNGSSEVEVVPFQEVWGRSYCRALERLVDVVSEYPSEVEHMFSPSCVSLLRCTGCCGDENLHCVPVETANVTMQLLKIRSGDRPSYVELTFSQHVRCECRPLREKMKPERCGDAVPRR
Take B2: the binding entry in assay [3] is on record as “binds”.

B3: mouse PLGF-1 (endogenous, produced by LLC cells) (ligand, UniProt P49764 19-158, looked up)
chain: VHSQGALSAGNNSTEVEVVPFNEVWGRSYCRPMEKLVYILDEYPDEVSHIFSPSCVLLSRCSGCCGDEGLHCVPIKTANITMQILKIPPNRDPHFYVEMTFSQDVLCECRPILETTKAERRKTKGKRKRSRNSQTEEPHP
Regarding B3, the binding result in assay [4] is on record as “binds”.
